This is an account of results in publication PMC5324308.

Protein sequences, listed by entry. Tags and fused reporters are not part of them.
UniProt Q9Z148: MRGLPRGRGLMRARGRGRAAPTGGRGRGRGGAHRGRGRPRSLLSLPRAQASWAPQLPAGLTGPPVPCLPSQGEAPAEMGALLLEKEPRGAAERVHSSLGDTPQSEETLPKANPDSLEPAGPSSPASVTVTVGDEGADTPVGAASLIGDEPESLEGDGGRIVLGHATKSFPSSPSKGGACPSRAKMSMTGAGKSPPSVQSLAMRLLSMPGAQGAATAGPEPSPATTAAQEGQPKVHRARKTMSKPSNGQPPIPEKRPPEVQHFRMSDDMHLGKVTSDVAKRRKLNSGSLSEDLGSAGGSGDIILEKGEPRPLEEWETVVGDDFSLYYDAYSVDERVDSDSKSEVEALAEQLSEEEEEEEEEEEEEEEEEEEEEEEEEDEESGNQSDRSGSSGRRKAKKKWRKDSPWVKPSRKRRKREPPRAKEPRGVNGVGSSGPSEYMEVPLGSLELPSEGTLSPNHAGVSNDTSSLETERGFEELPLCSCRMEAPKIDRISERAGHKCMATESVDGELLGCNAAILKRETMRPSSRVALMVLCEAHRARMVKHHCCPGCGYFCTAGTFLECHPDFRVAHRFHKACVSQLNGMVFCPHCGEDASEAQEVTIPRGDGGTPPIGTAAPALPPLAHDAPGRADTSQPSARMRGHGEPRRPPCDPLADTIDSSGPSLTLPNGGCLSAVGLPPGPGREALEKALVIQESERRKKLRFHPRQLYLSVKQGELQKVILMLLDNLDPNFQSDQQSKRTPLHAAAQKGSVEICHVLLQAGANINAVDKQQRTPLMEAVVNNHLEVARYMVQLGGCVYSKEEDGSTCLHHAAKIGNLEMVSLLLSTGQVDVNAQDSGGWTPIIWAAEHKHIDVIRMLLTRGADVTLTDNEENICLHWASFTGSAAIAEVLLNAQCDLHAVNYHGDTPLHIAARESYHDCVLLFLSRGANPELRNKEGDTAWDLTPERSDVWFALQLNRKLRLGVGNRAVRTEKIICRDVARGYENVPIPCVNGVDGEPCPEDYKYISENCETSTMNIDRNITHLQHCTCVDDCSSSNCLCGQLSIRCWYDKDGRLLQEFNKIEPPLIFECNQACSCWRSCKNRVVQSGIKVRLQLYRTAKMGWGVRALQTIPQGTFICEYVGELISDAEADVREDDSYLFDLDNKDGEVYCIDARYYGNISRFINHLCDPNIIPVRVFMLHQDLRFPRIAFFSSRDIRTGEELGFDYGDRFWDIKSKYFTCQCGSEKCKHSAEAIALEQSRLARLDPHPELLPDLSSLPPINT
UniProt Q61686: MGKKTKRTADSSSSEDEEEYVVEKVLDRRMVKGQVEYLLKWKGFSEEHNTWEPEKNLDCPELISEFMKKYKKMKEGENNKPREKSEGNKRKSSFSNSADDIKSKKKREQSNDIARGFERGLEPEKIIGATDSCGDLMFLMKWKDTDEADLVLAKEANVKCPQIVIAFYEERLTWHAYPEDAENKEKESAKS

Results are given in words; binding and its absence hold for the method and conditions named. Binding seen in cells or lysates may run through a third protein. Some binding calls cover weakened binding; strength is not graded here.

For the assay, the target named is T1, FLBIO-SMYD5 (biotinylated SMYD5 + BirA) (mouse) (UniProt Q3TYX3).
T1 sequence (chain, biotin (biotinylated in cells by BirA)): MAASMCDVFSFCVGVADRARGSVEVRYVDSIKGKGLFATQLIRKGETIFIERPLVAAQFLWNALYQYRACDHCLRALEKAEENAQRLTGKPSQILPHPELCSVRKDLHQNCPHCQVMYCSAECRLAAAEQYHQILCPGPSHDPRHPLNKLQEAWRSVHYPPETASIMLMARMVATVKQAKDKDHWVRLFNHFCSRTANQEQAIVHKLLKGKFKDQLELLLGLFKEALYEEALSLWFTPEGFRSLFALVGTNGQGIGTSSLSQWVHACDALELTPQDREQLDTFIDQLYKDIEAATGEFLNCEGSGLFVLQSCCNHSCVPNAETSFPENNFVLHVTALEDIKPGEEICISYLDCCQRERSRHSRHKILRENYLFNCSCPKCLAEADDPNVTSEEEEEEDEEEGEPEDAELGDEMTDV
The experiment in a line: co-IP; FLBIO-SMYD5 (biotinylated SMYD5 + BirA) ES cells or BirA (control) ES cells; SMYD5 precipitated with avidin-agarose beads; immunoblotting with anti-HP1α, anti-G9a and anti-SMYD5 antibodies.

For the substance “G9a (from UniProt Q9Z148 1-1263) (enzyme)”, the binding result is recorded as “binds”. For HP1α (from UniProt Q61686 1-191) the value was “binds”.
